The text below walks through data of US7189832 (University of California, dated 2007).

Results are given in words; binding and its absence hold for the method and conditions named. Binding seen in cells or lysates may run through a third protein. Some results given as binding are weak or reduced against the parent protein; the word gives no strength.

In this assay the target is T1, endogenous IKK-α (human) (UniProt O15111).
T1 sequence (looked up): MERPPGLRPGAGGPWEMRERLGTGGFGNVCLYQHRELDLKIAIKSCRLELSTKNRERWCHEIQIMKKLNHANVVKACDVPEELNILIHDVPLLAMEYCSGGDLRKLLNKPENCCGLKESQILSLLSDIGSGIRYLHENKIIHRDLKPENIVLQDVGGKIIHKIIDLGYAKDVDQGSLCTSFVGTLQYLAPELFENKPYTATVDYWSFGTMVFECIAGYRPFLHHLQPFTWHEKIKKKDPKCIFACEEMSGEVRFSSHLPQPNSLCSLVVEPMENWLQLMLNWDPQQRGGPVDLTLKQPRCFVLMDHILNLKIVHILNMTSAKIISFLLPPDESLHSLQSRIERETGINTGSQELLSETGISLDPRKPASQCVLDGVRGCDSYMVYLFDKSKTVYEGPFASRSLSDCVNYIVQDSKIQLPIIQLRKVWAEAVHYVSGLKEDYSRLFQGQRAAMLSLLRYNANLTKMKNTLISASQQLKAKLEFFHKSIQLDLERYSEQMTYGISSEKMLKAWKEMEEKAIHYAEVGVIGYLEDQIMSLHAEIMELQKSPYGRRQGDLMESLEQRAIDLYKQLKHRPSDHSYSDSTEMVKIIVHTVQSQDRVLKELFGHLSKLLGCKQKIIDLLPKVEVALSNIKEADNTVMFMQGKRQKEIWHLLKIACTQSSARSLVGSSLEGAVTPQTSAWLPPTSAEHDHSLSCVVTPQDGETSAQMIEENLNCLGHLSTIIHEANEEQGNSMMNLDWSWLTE
The experiment in a line: co-purification on anti-IKK-α immunoaffinity column, immunoblot. For orientation: Immunoblotting shows a protein as a band on a membrane.

B1: endogenous IKK-β (enzyme, human, UniProt O14920 1-756, looked up)
chain: MSWSPSLTTQTCGAWEMKERLGTGGFGNVIRWHNQETGEQIAIKQCRQELSPRNRERWCLEIQIMRRLTHPNVVAARDVPEGMQNLAPNDLPLLAMEYCQGGDLRKYLNQFENCCGLREGAILTLLSDIASALRYLHENRIIHRDLKPENIVLQQGEQRLIHKIIDLGYAKELDQGSLCTSFVGTLQYLAPELLEQQKYTVTVDYWSFGTLAFECITGFRPFLPNWQPVQWHSKVRQKSEVDIVVSEDLNGTVKFSSSLPYPNNLNSVLAERLEKWLQLMLMWHPRQRGTDPTYGPNGCFKALDDILNLKLVHILNMVTGTIHTYPVTEDESLQSLKARIQQDTGIPEEDQELLQEAGLALIPDKPATQCISDGKLNEGHTLDMDLVFLFDNSKITYETQISPRPQPESVSCILQEPKRNLAFFQLRKVWGQVWHSIQTLKEDCNRLQQGQRAAMMNLLRNNSCLSKMKNSMASMSQQLKAKLDFFKTSIQIDLEKYSEQTEFGITSDKLLLAWREMEQAVELCGRENEVKLLVERMMALQTDIVDLQRSPMGRKQGGTLDDLEEQARELYRRLREKPRDQRTEGDSQEMVRLLLQAIQSFEKKVRVIYTQLSKTVVCKQKALELLPKVEEVVSLMNEDEKTVVRLQEKRQKELWNLLKIACSKVRGPVSGSPDSMNASRLSQPGQLMSQPSTASNSLPEPAKKSEELVAEAHNLCTLLENAIQDTVREQDQSFTALDWSWLQTEEEEHSCLEQAS
On to B1, for which the binding result was “binds”.
